Laboratory results as given in article doi:10.1101/2025.05.29.656301.
These are yes or no findings as the source states them, for the method shown. In cells and extracts the contact can be indirect. Some binding calls cover weakened binding; strength is not graded here. For some assays here: Tags and fused reporters may be left off the sequences shown.

Chains of the proteins cited; added tags and fusions are not shown.
UniProt P61586: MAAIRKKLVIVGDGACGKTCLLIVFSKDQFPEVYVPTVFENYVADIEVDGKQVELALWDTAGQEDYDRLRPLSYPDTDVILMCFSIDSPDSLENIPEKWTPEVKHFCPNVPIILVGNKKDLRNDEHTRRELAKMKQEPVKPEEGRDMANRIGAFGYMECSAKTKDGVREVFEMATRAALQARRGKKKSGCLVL

Tests used:
[1] = molecular target: T1, CD20 WT with C-terminal flag-tag (human) (UniProt P11836); assay: proximity ligation
T1 sequence: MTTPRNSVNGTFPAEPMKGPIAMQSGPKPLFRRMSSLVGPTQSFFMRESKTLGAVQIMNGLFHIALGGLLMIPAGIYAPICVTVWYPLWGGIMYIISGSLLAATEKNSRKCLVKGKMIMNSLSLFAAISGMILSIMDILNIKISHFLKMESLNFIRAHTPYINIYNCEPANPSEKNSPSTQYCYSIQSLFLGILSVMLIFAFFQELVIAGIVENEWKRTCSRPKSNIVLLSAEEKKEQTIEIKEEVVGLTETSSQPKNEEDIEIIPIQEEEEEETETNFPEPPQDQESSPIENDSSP

[2] = molecular target: T2, CD20 (endogenous) (human (endogenous in Ramos and healthy donor B cells)) (UniProt P11836); assay: proximity ligation
T2 sequence: T1 sequence

Q: How did the binding [1] turn out when “RhoA (endogenous) (from UniProt P61586 1-193)” was run?
A: The binding was “binds”.

Q: And the binding [2]?
A: Its binding is “binds”.
